For some assays here: At least one compound was matched to its structure with a doubt left. Some entries share one result that the patent states for a list of compounds.
Legend:
JAK signaling = assay: JAK selectivity assay, HEK blue IL-12 reporter; assay type: cell-based; conditions: 12.5 ng/ml IL-12, 24 h; listed as ruxolitinib
Procedure: The cells were purchased from Invivogen (Catalog Nr: hkb-il12) and maintained according to vendor instructions. On the day of the experiment, cells were harvested by repeated tapping of the flask to shake loose the cells attached to the bottom of the flask. Then, cells were harvested, washed and resuspended in DMEM media supplemented with 10% fetal calf serum. 30 Microliters of cell suspension was seeded into a 384-well tissue culture-coated plate containing approximately 10,000 total cells. […] Using the ECHO “Dose Response” software, the test compound was added in duplicate wells with a 3-fold dilution curve. DMSO was back-filled to normalize the DMSO across all wells. […] After 30 minutes of incubation at room temperature, the optical density was measured at 620 nanometer using the Perkin Elmer Envision plate reader. A color change can be detected at this wavelength when secreted alkaline phosphatase, which is triggered by IL-12 signaling, is present in the supernatant. […]

p-SMAD2 (Ser465/Ser467) = assay: Longitudinal PK/PD analysis of p-SMAD2 in A549 xenograft mouse model; assay type: in vivo, mice; conditions: single dose 50 mg/kg per oral gavage
Procedure: Accordingly, a longitudinal, twenty-two-hour, one-dose study was performed using Compound 04 and the commercially available ALK5 inhibitor vactosertib in an A549 xenograft mouse model. In this study, p-SMAD2 (Ser465/Ser467) and a housekeeping gene (GAPDH) were measured at ten timepoints from zero (established using vehicle-treated animals) up to twenty-two hours post dose for a single drug dose of fifty milligrams per kilogram per subject (three subjects per dosing group).
For this study, xenografts were prepared and implanted in mice as follows. At five weeks of age, female athymic nude mice (purchased from Charles River) were injected with approximately 2.1 million A549 cells (ATCC, CCL-185). […] Tumors were measured every three days by caliper, and as tumors reached an average of seventy-eighty millimeters cubed, mice were randomized in groups of three subjects. […]
Samples were obtained post administration of test compounds at 30 minutes, one hour, two hours, four hours, six hours, eight hours, twelve hours, sixteen hours and twenty-two hours. […] The phospho SMAD-2 levels were determined using the Bio-Plex Pro™ Phospho-Smad2 (Ser465/Ser467) Set (BioRad 171V50019M). […] All analytes were analyzed in a multiplex fashion with the Bio-Plex Pro Cell Signaling Reagent Kit (BioRad 171304006M). […] Bead suspension was analyzed using the Luminex system (MAGPIX). […]

A549 lung fibroblasts = assay: Epithelial to mesenchymal transition gene expression in A549; assay type: cell-based; conditions: 5 ng/ml TGF-beta1, 48 h, up to 5 micromolar
Procedure: To evaluate whether Compounds 01 and 04 could inhibit epithelial to mesenchymal transition (EMT), an in vitro model using A549 lung fibroblasts was utilized. A549 cells were purchased from ATCC (CCL-185), and grown in RPMI media supplemented with 10 percent fetal bovine serum (FBS). On the day of the experiment, ten thousand A549 cells were seeded in eighty microliters total volume into a flat, tissue culture coated, ninety-six-well plate. Drugs, including positive control compounds vactosertib, PF-06952229 and LY3200882, were added in an eight point, one to three dilution series with the highest concentration of each drug being five micromolar, bringing the total volume of each well to ninety microliters. DMSO, which served to dissolve the 10 millimolar stock solution of each drug, was normalized across all wells After one hour of drug pretreatment, recombinant human TGF-beta1 was added to a final concentration of five nanograms per milliliter, bringing the volume to one hundred microliters. […] At the end of the incubation period, gene expression levels of various EMT markers were assessed using a custom designed QuantiGene Plex Gene Expression Assay. […]
Briefly, cell lysate was prepared using the QuantiGene Sample Processing Kit —Cultured Cells (QS0100) in the ninety-six well plate. […] The plate was read on a Luminex MAGPIX instrument.

[1] = system: TGF-β-induced pan-collagen expression; assay: In vitro 3D liver fibrosis assay (HepaRG NP 3D model); assay type: cell-based; conditions: 1 μM, 100 ng/mL TGF-β1, 72 hours
Procedure: An additional fibrosis assay was carried out with selected compounds using the Visikol OpenLiver™ HepaRG™ NP 3D model directed at fibrosis. The OpenLiver™ HepaRG™ NP 3D model features the ability to recapitulate a number of liver disease pathologies. Whether evaluating the disease-inducing liability of a compound or exploring targets to exploit for therapeutic amelioration of disease state, the HepaRG™ NP 3D model is capable of recapitulating disease features such hepatocellular lipid accumulation, nonparenchymal cell phenotype shift, and collagen matrix deposition.
HepaRGs (Lonza, NSHPRG, Lot #HNS1013) and non-parenchymal (NP) cells (Stellates, Kupffers and LSECS (Lonza, Lot HUM201221)) were thawed, assessed for viability and seeded at a hepatocyte to NP cell ratio of 60:40 into an ultra-low attachment round-bottom plate (Corning, 4515). The cells were initially cultured in William's E medium supplemented with HepaRG Thaw, Plate & General Purpose Supplement (Thermo Fisher, HPRG770) and GlutaMax (Thermo Fisher, 35050061) overnight. The next day the medium was half exchanged with William's E medium supplemented with HepaRG Maintenance Supplement (Thermo Fisher, HPRG720) and GlutaMax (Thermo Fisher, 35050061). […]
Clearing the spheroid with Visikol HISTO-M™ allows for clear images throughout the spheroid volume, therefore allowing the entire z-stack to be analyzed. […]

N#CC[C@H](C1CCCC1)n1cc(-c2ncnc3[nH]ccc23)cn1 [Ruxolitinib, ruxolitinib, reference compound]
IC50 (JAK signaling): < 300 nM

Cc1cccc(-c2[nH]c(CNc3ccccc3F)nc2-c2ccc3ncnn3c2)n1 [Vactosertib, vactosertib, reference compound]
time of peak p-SMAD2 suppression post dosing (p-SMAD2 (Ser465/Ser467)): one | CDH1 (E-Cadherin) gene expression (A549 lung fibroblasts): inhibition of downregulation of CDH1 (E-Cadherin) | expression of the nine genes induced with EMT (CDH2, SNAI1, SNAI2, VIM, SPARC, GALNT6, CTNNB1, TGFB1, MAML3) (A549 lung fibroblasts): inhibition of induction of the nine genes that are induced with EMT | TGF-β-induced pan-collagen expression [1]: inhibited TGF-β-induced pan-collagen expression

— patent US20240197729A1, “ALK-5 Inhibitors and Uses Thereof” (Sumitomo Pharma Oncology, Inc., priority 2021, published 2024)
